From article PMC8049286
These are yes or no findings as the source states them, for the method shown.

By UniProt entry, the sequences of proteins in these tests, tags left out. Where a name states a change or a piece, a line headed by the entry shows the natural chain unless it says otherwise. Chains listed by the source or under a name are the forms on record and can include a tag or linker. Residues count along the entry.
human ORP3 ORD (OSBP-related domain, residues 504-887) (Q9H4L5, form named): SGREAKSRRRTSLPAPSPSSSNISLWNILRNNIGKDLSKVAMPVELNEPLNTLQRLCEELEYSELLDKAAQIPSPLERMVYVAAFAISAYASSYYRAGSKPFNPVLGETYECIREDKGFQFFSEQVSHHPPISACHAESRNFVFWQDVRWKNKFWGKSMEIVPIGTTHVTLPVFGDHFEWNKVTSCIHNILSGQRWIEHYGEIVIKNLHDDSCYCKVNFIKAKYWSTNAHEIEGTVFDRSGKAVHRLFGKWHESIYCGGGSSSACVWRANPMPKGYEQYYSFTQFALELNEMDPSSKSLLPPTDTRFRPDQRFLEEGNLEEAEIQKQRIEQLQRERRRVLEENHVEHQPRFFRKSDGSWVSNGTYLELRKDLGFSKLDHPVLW

Key:
[1] = target: human ORP3 ORD (OSBP-related domain, residues 504-887) (human) (UniProt Q9H4L5); experiment: crystal structure; apo form and PI(4)P diC8 complex, space group P3(1)21, two molecules in the asymmetric unit related by two-fold non-crystallographic symmetry; both purified
[2] = target: human ORP3 ORD (OSBP-related domain, residues 504-887) (human) (UniProt Q9H4L5); experiment: SEC; Superdex 200, 20 mM Tris-HCl pH 8.0, 150 mM NaCl; purified recombinant ORP3 ORD; both purified

“human ORP3 ORD (OSBP-related domain, residues 504-887) (from UniProt Q9H4L5 504-887) (domain or fragment)” was tested, and the binding [1] was “no binding” and the binding [2] was “no binding”.
